These results are taken from PMC4893818, “Folliculin directs the formation of a Rab34–RILP complex to control the nutrient‐dependent dynamic distribution of lysosomes” (EMBO Reports, 2016).

Chains of the proteins cited; added tags and fusions are not shown. Residues count along the entry.
UniProt Q6PHN9, residues 1-199: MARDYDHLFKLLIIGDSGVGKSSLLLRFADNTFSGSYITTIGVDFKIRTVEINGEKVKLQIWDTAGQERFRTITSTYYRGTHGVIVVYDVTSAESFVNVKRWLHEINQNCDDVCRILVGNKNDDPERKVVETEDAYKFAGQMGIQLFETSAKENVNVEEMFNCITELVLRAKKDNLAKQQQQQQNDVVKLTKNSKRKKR

Experiment [1] addresses T1, GFP-Rab34 (mouse) (UniProt Q64008).
T1 sequence: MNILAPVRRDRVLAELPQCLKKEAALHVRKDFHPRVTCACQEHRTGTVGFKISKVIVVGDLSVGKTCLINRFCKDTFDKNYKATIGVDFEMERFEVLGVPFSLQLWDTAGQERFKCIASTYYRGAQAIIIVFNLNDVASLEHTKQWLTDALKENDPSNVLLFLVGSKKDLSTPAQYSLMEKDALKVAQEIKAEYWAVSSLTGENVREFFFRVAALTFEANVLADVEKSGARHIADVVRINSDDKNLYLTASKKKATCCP
Put plainly: co-IP; GFP-Trap beads, lysate of HeLa cells transfected with GFP-Rab34 and HA-Rab7 with or without HA-RILP; 25 mM HEPES pH 7.5, 150 mM NaCl, 2 mM MgCl2, 0.5% NP-40, 0.5% Triton X-100; blots for GFP and HA.

The target of experiment [2] is T2, Rab34 (Q111L)-dsRED-Mito (mouse) (UniProt Q64008).
T2 sequence: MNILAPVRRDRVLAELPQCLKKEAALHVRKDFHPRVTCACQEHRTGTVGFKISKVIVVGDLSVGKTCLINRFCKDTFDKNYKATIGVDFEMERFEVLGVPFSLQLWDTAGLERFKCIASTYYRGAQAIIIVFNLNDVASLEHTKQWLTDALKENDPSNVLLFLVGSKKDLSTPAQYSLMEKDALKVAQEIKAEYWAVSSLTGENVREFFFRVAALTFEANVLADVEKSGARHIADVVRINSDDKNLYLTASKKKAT
Put plainly: recruitment to mitochondria by a mitochondrially targeted partner (confocal microscopy); HeLa cells co-transfected with Rab-dsRED-Mito and FLCN-GFP or its variants, with or without HA-FNIP2; fixed cells, confocal immunofluorescence.

Experiment [3] has as its target T3, Rab34-dsRED-Mito (WT) (mouse) (UniProt Q64008).
T3 sequence: T2 sequence with L111Q
The description is as above.

Experiment [4] deals with Rab35-dsRED-Mito (mouse) (UniProt Q6PHN9). The experiment is described as above.
The target of experiment [5] is T4, GST-RILP (full ORF) (human, UniProt Q96NA2 1-401).
T4 construct: also called GST-RILP resin; source: E. coli BL21(DE3), purified (glutathione beads, eluted with glutathione, dialysed); not shown: GST, N-terminal, kept
T4 sequence (looked up): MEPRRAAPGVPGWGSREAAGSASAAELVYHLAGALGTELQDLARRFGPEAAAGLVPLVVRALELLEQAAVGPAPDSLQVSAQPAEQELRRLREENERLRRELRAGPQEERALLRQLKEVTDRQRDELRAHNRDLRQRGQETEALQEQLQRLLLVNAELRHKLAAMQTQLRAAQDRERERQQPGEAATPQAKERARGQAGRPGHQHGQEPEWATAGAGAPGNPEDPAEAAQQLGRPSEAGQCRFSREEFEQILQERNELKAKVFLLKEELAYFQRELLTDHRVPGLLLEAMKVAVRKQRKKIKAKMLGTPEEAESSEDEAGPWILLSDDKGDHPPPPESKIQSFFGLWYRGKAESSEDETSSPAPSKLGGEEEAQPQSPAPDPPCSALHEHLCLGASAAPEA
Put plainly: pull-down; larger scale: 0.5 nmol GST-RILP on glutathione beads, 2 x 15 cm dishes of HeLa lysed in 1 ml lysis buffer; Western blot; only the target purified. (Immunoblotting shows a protein as a band on a membrane.)

For experiment [6], the target named is T4, GST-RILP (full ORF). Put plainly: pull-down; 0.1 nmol GST-RILP prebound to glutathione beads, extracts of UOK257, UOK257-2, UOK257-FLCN and UOK257-FLCNΔDENN cells; Western blot for endogenous Rab34 and Rab7; only the target purified.
For experiment [7], the target named is GST-RILP Rab binding domain (aa 241-321) (human) (UniProt Q96NA2). Put plainly: pull-down; GST-RILP fragments or GST alone on beads, extracts of UOK257-FLCN (full length) and UOK257-FLCNΔDENN cells; Western blot; only the target purified.
Experiment [8] concerns the target GST-RILP C-terminal domain (322 to C) (human) (UniProt Q96NA2). Described as above.
Experiment [9] addresses GST-RILP N-terminal coiled coil region (aa N-240) (human) (UniProt Q96NA2). The description is as above.

Where a chain is given by its changes, count along the chain named. No constants are given. Whether binding was seen depends on the method and setting. For part of these data: Binding seen in cells or lysates may run through a third protein. Some binding calls cover weakened binding; strength is not graded here. For part of these data: Sequences can lack the tags named with a protein.

Turning to HA-RILP (from UniProt Q96NA2 1-401), the binding entry in [1] is given as “binds”.

B1: FLCN-GFP (full-length mouse FLCN) (protein, UniProt Q8QZS3 1-579)
chain: MNAIVALCHFCELHGPRTLFCTEVLHAPLPQGAGSGDSPDQVEQAEEEEGGIQMSSRVRAHSPAEGASSESSSPGPKKSDMCEGCRSLAVGHPGYISHDKETSIKYVSHQHPNHPQLFSIVRQACVRSLSCEVCPGREGPIFFGDEQHGFVFSHTFFIKDSLARGFQRWYSIIAIMMDRIYLINSWPFLLGRIRGIISELQAKAFKVFEAEQFGCPQRAQRMNTAFTPFLHQRNGNAARSLTSLTSDDNLWACLHTSFAWLLKACGSRLTEKLLEGAPTEDTLVQMEKLADLEEESESWDNSEAEEEEKAPVTPEGAEGRELTSCPTESSFLSACGSWQPPKLTGFKSLRHMRQVLGAPSFRMLAWHVLMGNQVIWKSRDVNLVHSAFEVLRTMLPVGCVRIIPYSSQYEEAYRCNFLGLSPPVPIPAHVLASEFVVVVEVHTATRSNLHPAGCEDDQSLSKYEFVVTSGSPVAADRVGPTILNKIEAALTNQNLSVDVVDQCLICLKEEWMNKVKVLFKFTKVDSRPKEDTQKLLSVLGASEEDNVKLLKFWMTGLSKTYKSHLMSTVRSPTATESRS
On to B1, for which the values for the binding result in experiment [2], in [3] and in experiment [4] were “binds”, “binds” and “no binding”, respectively.

B2: endogenous Rab34 (natural protein, UniProt Q9BZG1 1-259, looked up)
chain: MNILAPVRRDRVLAELPQCLRKEAALHGHKDFHPRVTCACQEHRTGTVGFKISKVIVVGDLSVGKTCLINRFCKDTFDKNYKATIGVDFEMERFEVLGIPFSLQLWDTAGQERFKCIASTYYRGAQAIIIVFNLNDVASLEHTKQWLADALKENDPSSVLLFLVGSKKDLSTPAQYALMEKDALQVAQEMKAEYWAVSSLTGENVREFFFRVAALTFEANVLAELEKSGARRIGDVVRINSDDSNLYLTASKKKPTCCP
notes: Rab34 small GTPase, endogenous in human cell lines; source: endogenous, HeLa lysate; endogenous, lysates of UOK257, UOK257-2, UOK257-FLCN and UOK257-FLCNΔDENN cells
Take B2: the binding result in experiment [5] and in experiment [6] was “binds” in each case.

B3: hsFLCNΔDENN (aa1-343), untagged (UOK257-FLCNΔDENN cells) (domain or fragment, UniProt Q8NFG4 1-343)
chain: MNAIVALCHFCELHGPRTLFCTEVLHAPLPQGDGNEDSPGQGEQAEEEEGGIQMNSRMRAHSPAEGASVESSSPGPKKSDMCEGCRSLAAGHPGYISHDKETSIKYVSHQHPSHPQLFSIVRQACVRSLSCEVCPGREGPIFFGDEQHGFVFSHTFFIKDSLARGFQRWYSIITIMMDRIYLINSWPFLLGKVRGIIDELQGKALKVFEAEQFGCPQRAQRMNTAFTPFLHQRNGNAARSLTSLTSDDNLWACLHTSFAWLLKACGSRLTEKLLEGAPTEDTLVQMEKLADLEEESESWDNSEAEEEEKAPVLPESTEGRELTQGPAESSSLSGCGSWQPRKL
Take B3: the binding result in [7], in [8] and in [9] was “no binding” in each case.

B4: FLCN(344-C)-GFP (DENN only) (domain or fragment, UniProt Q8QZS3 344-579)
chain: TGFKSLRHMRQVLGAPSFRMLAWHVLMGNQVIWKSRDVNLVHSAFEVLRTMLPVGCVRIIPYSSQYEEAYRCNFLGLSPPVPIPAHVLASEFVVVVEVHTATRSNLHPAGCEDDQSLSKYEFVVTSGSPVAADRVGPTILNKIEAALTNQNLSVDVVDQCLICLKEEWMNKVKVLFKFTKVDSRPKEDTQKLLSVLGASEEDNVKLLKFWMTGLSKTYKSHLMSTVRSPTATESRS
Turning to B4, in experiment [3], the binding entry is on record as “binds”.

B5: HA-FNIP2 (protein, UniProt Q9P278 1-1114)
chain: MAPTLLQKLFNKRGSSGSSAAASAQGRAPKEGPAFSWSCSEFDLNEIRLIVYQDCDRRGRQVLFDSKAVQKIEEVTAQKTEDVPIKISAKCCQGSSSVSSSSSSSISSHSSSGGSSHHAKEQLPKYQYTRPASDVNMLGEMMFGSVAMSYKGSTLKIHYIRSPPQLMISKVFSARMGSFCGSTNNLQDSFEYINQDPNLGKLNTNQNSLGPCRTGSNLAHSTPVDMPSRGQNEDRDSGIARSASLSSLLITPFPSPSSSTSSSSSYQRRWLRSQTTSLENGIIPRRSTDETFSLAEETCSSNPAMVRRKKIAISIIFSLCEKEEAQRNFQDFFFSHFPLFESHMNRLKSAIEKAMISCRKIAESSLRVQFYVSRLMEALGEFRGTIWNLYSVPRIAEPVWLTMMSGTLEKNQLCQRFLKEFTLLIEQINKNQFFAALLTAVLTYHLAWVPTVMPVDHPPIKAFSEKRTSQSVNMLAKTHPYNPLWAQLGDLYGAIGSPVRLTRTVVVGKQKDLVQRILYVLTYFLRCSELQENQLTWSGNHGEGDQVLNGSKIITALEKGEVEESEYVVITVRNEPALVPPILPPTAAERHNPWPTGFPECPEGTDSRDLGLKPDKEANRRPEQGSEACSAGCLGPASDASWKPQNAFCGDEKNKEAPQDGSSRLPSCEVLGAGMKMDQQAVCELLKVEMPTRLPDRSVAWPCPDRHLREKPSLEKVTFQIGSFASPESDFESRMKKMEERVKACGPSLEASEAADVAQDPQVSRSPFKPGFQENVCCPQNRLSEGDEGESDKGFAEDRGSRNDMAADIAGQLSHAADLGTASHGAGGTGGRRLEATRGLYVKAAEGPVLEPVAPRCVQRGPGLVAGANIPCGDDNKKANFRTEGDIPRNESSDSALGDSDDEACASAMLDLGHGGDRTGGSLEVELPLPRSQSISTQNVRNFGRSLLAGYCPTYMPDLVLHGTGSDEKLKQCLVADLVHTVHHPVLDEPIAEAVCIIADTDKWSVQVATSQRKVTDNMKLGQDVLVSSQVSSLLQSILQLYKLHLPADFCIMHLEDRLQEMYLKSKMLSEYLRGHTRVHVKELGVVLGIESNDLPLLTAIASTHSPYVAQILL
Take B5: the binding result in [3] is “no binding”.

B6: FLCN(N-343)-GFP (ΔDENN) (domain or fragment, UniProt Q8QZS3 1-343)
chain: MNAIVALCHFCELHGPRTLFCTEVLHAPLPQGAGSGDSPDQVEQAEEEEGGIQMSSRVRAHSPAEGASSESSSPGPKKSDMCEGCRSLAVGHPGYISHDKETSIKYVSHQHPNHPQLFSIVRQACVRSLSCEVCPGREGPIFFGDEQHGFVFSHTFFIKDSLARGFQRWYSIIAIMMDRIYLINSWPFLLGRIRGIISELQAKAFKVFEAEQFGCPQRAQRMNTAFTPFLHQRNGNAARSLTSLTSDDNLWACLHTSFAWLLKACGSRLTEKLLEGAPTEDTLVQMEKLADLEEESESWDNSEAEEEEKAPVTPEGAEGRELTSCPTESSFLSACGSWQPPKL
In the case of B6, the binding result in experiment [3] is “no binding”.
